Measured values reported in PubChem BioAssay AID540276 (National Center for Advancing Translational Sciences (NCATS), 2011).
Several values for one entry are separate records, joined by “and”; a condition that tells them apart may be missing. Identical values can stand only once. The whole screen tested about 300,000 compounds, of which about 5,400 (1.8%) were called active. The inconclusive results got no clear call from the source; some entries with a clear call stand among them for comparison. The call rests on the fitted dose curve; tested in HEK293 cells. Where the call is inconclusive, the potency comes from a doubtful curve fit. Where a structure was tested more than once in an assay, its records may differ in their call.

Test: qHTS for inhibitors of binding or entry into cells for Marburg Virus
Conditions: Marburg virus pseudotyped entry inhibition, cell reporter; activity change, negative = inhibition: at 37.8 µM (top of the series) unless noted
On the % scale 0 is the no-effect control and ±100 the full control effect; potency means the concentration at half of the fitted maximal effect.

SMILES	Potency	activity change, negative = inhibition
FC(F)(F)c1ccc2c(c1)ncc1c(-c3ccccc3)nn(-c3ccccc3)c12	inconclusive: 11.2 µM [activator, partial curve, poor fit]	
CN(C)S(=O)(=O)c1ccc(C(=O)Nc2ccc3nc(N4CCOCC4)sc3c2)cc1	inconclusive: 0.398 µM [activator, full curve, poor fit]	
Cc1ccc(OCCn2cnc3cc([N+](=O)[O-])ccc3c2=O)cc1		inactive: -7.37%
COc1ccc(NS(=O)(=O)c2cc(N)ccc2N2CCOCC2)cc1		inactive: 13.4% [at 46.1 µM]
Cc1ccnc(NS(=O)(=O)c2ccc(Oc3ccccc3)cc2)c1		inactive: -32.6%
CCc1ccc(C(=O)NNC(=O)C2CCN(c3ncnc4sc(C)c(C)c34)CC2)cc1	inconclusive: 11.2 µM [inhibitor, partial curve, poor fit]	
Cc1ncc(C(=O)Nc2ccccc2)[nH]1	inconclusive: 3.55 µM [activator, single point]	
O=C(Nc1ccc(NC(=O)C2CC2)nc1)c1ccccn1	inconclusive: 7.94 µM [inhibitor, partial curve, poor fit]	
C=CCN1CC[C@]23CCCCC2[C@H]1Cc1ccc(O)cc13 (stereo not given in full)	active: 7.94 µM	
COc1ccc(NC(=O)c2ccc3c(c2)N(Cc2cccc(Cl)c2)C(=O)c2ccccc2S3(=O)=O)cc1Cl		inactive: -15.6% [at 46.1 µM]
Cc1sc(NC(=O)c2ccccc2)c(C(=O)c2ccccc2)c1C	inconclusive: 0.316 µM [activator, partial curve, poor fit]	
Cc1ccc(NC(=S)N2CCN(C(=O)C3CCCO3)CC2)cc1 (stereo not given)	inconclusive: 0.501 µM [activator, full curve, poor fit]	
O=C1C2C3C=CC(C3)C2C(=O)N1CCN1CCN(S(=O)(=O)c2ccc3ccccc3c2)CC1 (stereo not given)		inactive: 2.29%
CC1=Nc2cc(C(=O)NC3CCC(C)CC3)ccc2Sc2c(C)ccc(C)c21 (stereo not given)	inconclusive: 2 µM [inhibitor, full curve]	
CC(NC(=O)c1cc2sccc2n1C)c1ccc2c(c1)OCCO2 (stereo not given)	inconclusive: 6.31 µM [inhibitor, partial curve, poor fit]	
COc1ccc(-c2csc(NC(=O)c3cc(C)oc3C)n2)cc1OC	inconclusive: 15.8 µM [inhibitor, partial curve, poor fit]	
O=C(Cc1nnc(NC(=O)Nc2ccccc2F)s1)NCc1ccccc1		inactive: -14.2% [at 46.1 µM]
COc1ccccc1C(=O)N=C1SC2CS(=O)(=O)CC2N1c1ccccc1 (stereo not given)		inactive: 0.376% [at 46.1 µM]
COc1ccccc1C(=O)Nc1ccc2c(c1)nc(CCNC(C)=O)n2C		inactive: 18.5%
NC(=O)c1c(NC(=O)c2ccccc2)sc2c1CCc1ccccc1-2	inconclusive: 3.26 µM [activator, partial curve, poor fit]	
CS(=O)(=O)Nc1ccc(C(=O)Nc2ccc3c(c2)OCCO3)cc1	inconclusive: 3.66 µM [activator, single point]	
COc1cccc(NC(=O)CN(C)C(=O)c2cc(-c3ccco3)nc3ccccc23)c1	inconclusive: 35.5 µM [inhibitor, partial curve, poor fit]	

SMILES	Potency	activity change, negative = inhibition
COc1cc(NC(=O)c2cccs2)c(C(=O)OCC(=O)c2cc(C)n(-c3ccc(F)cc3)c2C)cc1OC	inconclusive: 5.62 µM [inhibitor, single point]	
COc1ccc(-n2c3c(cc(C#N)c2=O)C(=O)CCC3)cc1	inconclusive: 35.5 µM [activator, partial curve, poor fit]	
CC(=O)c1cnc(-c2ccccn2)s1	inconclusive: 5.62 µM [activator, partial curve, poor fit]	
CC(=O)N1CCc2c(sc3c2c(=O)n(Cc2ccccc2)c(=O)n3Cc2cccc(Cl)c2)C1	inconclusive: 35.5 µM [inhibitor, single point]	
CC(=O)O[C@H]1C[C@@H]2CC[C@@H]3[C@H](CC[C@@]4(C)[C@H]3C[C@H]([N+]3(C)CCCCC3)[C@@H]4OC(C)=O)[C@@]2(C)C[C@@H]1[N+]1(C)CCCCC1	inconclusive: 0.0282 µM [activator, full curve, poor fit]	
COc1ccccc1N1CCN(/N=C/C=C/c2ccccc2[N+](=O)[O-])CC1	inconclusive: 35.5 µM [inhibitor, single point]	
COc1ccc(CNc2nc3c(c(=O)n(Cc4ccc(F)cc4)c(=O)n3C)n2C)cc1		inactive: -27.6%
CSc1ccccc1NC(=O)c1cc(-c2ccc3c(c2)OCO3)on1		inactive: 8.72% [at 46.1 µM]
CCOC(=O)c1c(C)nc2c(c1-c1ccc(OC)cc1)C(=O)CC(C)(C)C2	inconclusive: 5.62 µM [inhibitor, full curve, poor fit]	
Cn1c(=O)c([N+](=O)[O-])c(N2CCN(Cc3ccc4c(c3)OCO4)CC2)c2ccccc21	inconclusive: 22.4 µM [inhibitor, single point]	
CN(C)CCCN(Cc1cc2cc3c(cc2[nH]c1=O)OCO3)C(=S)Nc1cccc(Cl)c1	inconclusive: 6.31 µM [inhibitor, partial curve, poor fit]	
OC(CN(c1ccccc1)c1ccccc1)Cn1cnc2ccccc21 (stereo not given)	inconclusive: 22.4 µM [inhibitor, single point]	
Cc1ccc(NC(=O)C2CCCN(C(=O)Nc3ccc(F)cc3)C2)cc1 (stereo not given)		inactive: -2.2% [at 46.1 µM]
Cc1ccc(-n2nc(CO)c(C(=O)NCc3cccs3)n2)cc1C		inactive: 0.288% [at 46.1 µM]
CCOC(=O)c1c(C)[nH]c(O)c1C=Nc1ccc(Cl)cc1	inconclusive: 20.6 µM [inhibitor, single point]	
CCCCCCCCN=C1NC(=O)CS1		inactive: 8.55%
CC(=O)c1ccc(Oc2cc(C)nc(NCc3ccccc3)n2)cc1	inconclusive: 8.91 µM [inhibitor, partial curve, poor fit]	
CCN(CC)CCCC1(CN)OCCc2ccccc21 (stereo not given)	inconclusive: 14.1 µM [inhibitor, partial curve, poor fit]	
CC(=O)Nc1ccc(NC(=O)c2ccc(COc3ccc(Cl)cc3Cl)o2)cc1	inconclusive: 7.08 µM [activator, partial curve, poor fit]	
O=C(c1ccco1)N1CCN(C(=O)c2cc(-c3ccccc3)nc3ccccc23)CC1	inconclusive: 29.1 µM [inhibitor, single point]	
Cn1nnnc1SCc1nnc(-c2ccc(F)cc2)o1	inconclusive: 11.2 µM [activator, partial curve, poor fit]	
COC(=O)c1ccccc1NC(=O)c1nc(S(=O)(=O)Cc2cccc(C)c2)ncc1Cl		inactive: 1.52% [at 46.1 µM]

SMILES	Potency	activity change, negative = inhibition
CCOC(=O)c1cc(-c2ccccc2)sc1NC(=O)C(C)OC(=O)c1cccnc1OCC (stereo not given)	inconclusive: 1.26 µM [inhibitor, single point]	
CCOC(=O)c1cc(C#N)c(N2CCCC2)nc1-c1ccccc1	inconclusive: 35.5 µM [inhibitor, single point]	
CCn1ncc(C(=O)Nc2cccc(Cl)c2)c1C		inactive: -4.52%
COc1ccc([C@@H]2C(C(C)=O)=C(O)C(=O)N2c2nccs2)cc1OC	inconclusive: 6.31 µM [inhibitor, single point]	
CC(=O)c1ccc(NC(=O)C(C)n2nc(-c3ccccc3)c3cc(Cl)ccc32)cc1 (stereo not given)		inactive: -8.92%
O=C(N/N=C1\C[C@@H](O)[C@@H](O)[C@@H]2[C@@H]3C(=O)N(c4cccc(Oc5ccccc5)c4)C(=O)[C@@H]3CC[C@H]12)OCc1ccccc1		inactive: 4.03% [at 14.2 µM]
COc1cc(C2CC(=O)N(Cc3ccc(F)cc3)c3ccccc3S2)cc(OC)c1OC (stereo not given)	inconclusive: 25.1 µM [inhibitor, single point]	
CCC1(CC)NC(=O)N(CC(=O)OCC(=O)Nc2ncc(Cl)cc2Cl)C1=O		inactive: -5.11%
COc1cc(CNC2CCCC2)cc(Cl)c1OCc1ccccc1F	inconclusive: 16.4 µM [inhibitor, single point]	
COc1cc(NC(=O)Cn2ncc(Cl)c(Cl)c2=O)c(C)cc1[N+](=O)[O-]	active: 7.08 µM	
CCN(CC)c1ccc(C=C2SC(=S)NC2=O)cc1	inconclusive: 3.16 µM [activator, single point]	
O=C1c2ccccc2OC2(C=Cc3ccccc3O2)N1Cc1ccccc1 (stereo not given)	inconclusive: 11.2 µM [inhibitor, partial curve, poor fit]	
CCCCOc1ccccc1NC(=O)CC1Nc2ccccc2NC1=O (stereo not given)	inconclusive: 3.66 µM [inhibitor, partial curve, poor fit]	
COC(=O)C1=C(C)N(Cc2ccccc2)C(=NCc2ccc(OC)cc2)NC1c1ccccc1 (stereo not given)	inconclusive: 1.1 nM [activator] and inconclusive: 2.1 nM [inhibitor, full curve, poor fit]	
Cc1ccc(C)c(CN2C(=O)c3ccccc3S(=O)c3ccc(C(=O)N4CCN(c5ccccc5F)CC4)cc32)c1 (stereo not given)	inconclusive: 3.16 µM [inhibitor, full curve, poor fit]	
COc1ccc(OC)c(/C=N\NC(=O)c2ccc(-c3ccccc3)cc2)c1		inactive: -11.1%
Cc1ccc2c(c1)N(C(=O)CCC(=O)NCc1cccs1)CCO2		inactive: -4.84% [at 46.1 µM]
Cc1[nH]n(-c2ccccc2)c(=O)c1N=Nc1nccs1	inconclusive: 20.6 µM [inhibitor, single point]	
O=C(/C=C/c1ccccc1)NNC(=O)c1ccco1	inconclusive: 11.2 µM [activator, partial curve]	
Cc1ccc(C(C)NC(=O)c2cc3cc(Br)ccc3oc2=N)cc1 (stereo not given)		inactive: -12%
Cc1ccc(C(=O)CC(=O)c2cc(Cl)ccc2O)cc1	inconclusive: 4.11 µM [inhibitor, single point]	
